Data from article PMC9718803.
No constants are given. Whether binding was seen depends on the method and setting. In cells and extracts the contact can be indirect. A yes stands for co-enrichment or nearness to the bait. Other partners may have been found. Values belong to the binder of their own block, whether it stands above or below them.

Sequences of proteins named here, by UniProt entry; tags and fusion partners are left off.
UniProt F4J8G7: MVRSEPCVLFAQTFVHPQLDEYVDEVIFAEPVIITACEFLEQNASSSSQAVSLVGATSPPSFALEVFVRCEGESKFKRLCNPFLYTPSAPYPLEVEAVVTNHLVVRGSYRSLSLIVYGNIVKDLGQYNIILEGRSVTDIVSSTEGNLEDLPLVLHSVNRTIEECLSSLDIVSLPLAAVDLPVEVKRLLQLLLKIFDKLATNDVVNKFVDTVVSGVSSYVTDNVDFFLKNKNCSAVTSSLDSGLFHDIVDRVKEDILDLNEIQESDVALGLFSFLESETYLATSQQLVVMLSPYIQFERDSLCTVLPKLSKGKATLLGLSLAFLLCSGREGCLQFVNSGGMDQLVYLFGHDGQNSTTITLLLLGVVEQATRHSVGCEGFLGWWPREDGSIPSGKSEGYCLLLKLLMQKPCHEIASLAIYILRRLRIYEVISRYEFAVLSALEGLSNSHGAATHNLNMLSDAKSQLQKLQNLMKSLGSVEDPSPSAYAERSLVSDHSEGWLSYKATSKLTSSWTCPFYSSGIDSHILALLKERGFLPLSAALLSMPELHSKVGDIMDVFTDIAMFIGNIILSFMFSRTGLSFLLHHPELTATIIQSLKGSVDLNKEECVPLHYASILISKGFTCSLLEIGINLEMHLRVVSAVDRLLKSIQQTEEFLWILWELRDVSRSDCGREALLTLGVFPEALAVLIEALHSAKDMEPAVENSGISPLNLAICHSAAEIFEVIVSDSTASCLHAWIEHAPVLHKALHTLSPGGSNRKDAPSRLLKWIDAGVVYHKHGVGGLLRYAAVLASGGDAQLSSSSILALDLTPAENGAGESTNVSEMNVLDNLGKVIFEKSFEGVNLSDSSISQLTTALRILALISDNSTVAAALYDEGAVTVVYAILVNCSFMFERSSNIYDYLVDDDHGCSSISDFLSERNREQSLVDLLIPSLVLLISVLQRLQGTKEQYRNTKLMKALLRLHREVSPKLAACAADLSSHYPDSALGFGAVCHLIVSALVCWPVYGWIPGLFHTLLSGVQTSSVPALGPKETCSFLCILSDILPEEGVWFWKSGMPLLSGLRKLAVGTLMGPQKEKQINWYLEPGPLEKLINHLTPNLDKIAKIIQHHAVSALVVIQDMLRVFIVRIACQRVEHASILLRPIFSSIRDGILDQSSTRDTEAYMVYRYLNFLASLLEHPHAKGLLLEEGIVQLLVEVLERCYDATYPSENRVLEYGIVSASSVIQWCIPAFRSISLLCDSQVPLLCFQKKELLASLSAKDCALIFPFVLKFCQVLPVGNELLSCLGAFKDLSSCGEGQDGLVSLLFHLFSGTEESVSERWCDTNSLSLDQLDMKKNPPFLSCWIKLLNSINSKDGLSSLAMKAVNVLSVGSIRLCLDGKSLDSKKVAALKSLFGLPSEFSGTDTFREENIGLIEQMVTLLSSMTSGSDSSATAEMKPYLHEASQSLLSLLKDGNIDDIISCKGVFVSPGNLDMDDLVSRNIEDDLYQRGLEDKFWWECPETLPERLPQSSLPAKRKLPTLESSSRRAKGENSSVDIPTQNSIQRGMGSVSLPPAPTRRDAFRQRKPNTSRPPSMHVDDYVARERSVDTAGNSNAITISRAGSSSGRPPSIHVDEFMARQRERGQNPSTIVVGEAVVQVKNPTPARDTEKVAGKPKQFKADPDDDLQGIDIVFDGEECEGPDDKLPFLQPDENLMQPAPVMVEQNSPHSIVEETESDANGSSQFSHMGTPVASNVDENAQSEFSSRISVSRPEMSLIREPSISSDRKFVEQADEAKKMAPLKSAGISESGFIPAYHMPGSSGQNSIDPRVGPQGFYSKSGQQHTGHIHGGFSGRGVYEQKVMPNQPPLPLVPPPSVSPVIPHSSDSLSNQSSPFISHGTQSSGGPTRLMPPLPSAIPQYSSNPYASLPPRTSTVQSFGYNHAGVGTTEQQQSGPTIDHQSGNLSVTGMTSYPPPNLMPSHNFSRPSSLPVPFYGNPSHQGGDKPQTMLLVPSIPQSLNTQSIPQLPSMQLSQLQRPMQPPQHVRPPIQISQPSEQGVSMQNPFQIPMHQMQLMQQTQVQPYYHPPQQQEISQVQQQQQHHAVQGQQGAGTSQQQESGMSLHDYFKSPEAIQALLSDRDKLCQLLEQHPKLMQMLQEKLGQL

Biological target: VIRILIZER (VIR) (Arabidopsis thaliana (endogenous in Col-0 seedlings)) (UniProt F4J8G7)
Test: affinity purification with mass spectrometry; RNA immunoprecipitation (RIP) from clarified lysate of 7-day-old Col-0 seedlings (50 mM Tris-HCl pH 7.4, 2.5 mM MgCl2, 100 mM KCl, 0.1% Nonidet P-40, RNase OUT) with anti-VIR antibody bound to protein A agarose; normal rabbit IgG as control; associated proteins identified by LC-MS/MS

binding: binds
B2: PTAC16 (protein, UniProt Q9STF2 20-510)
chain: FNRRKPRLTVWAKQTAFQLGKTKGDDDSEGKQKGKNPFQFDFGKLPDMKSLIPVVTNPSTGLVFGNNRKKDPGTIFVAGATGQAGIRIAQTLLQRGFSVRAGVPDLGAAQDLARVAATYKILSNDEVKRLNAVQSPFQDAESIAKAIGNATKVVVTVGATENGPDAQVSTSDALLVVQAAELAGVSHVAIVYDGTISGSTYNVLDGITSFFGNLFAKSQPLTISDLIEKVAQTDVAYTLIKTSLTEDFSPEKAYNVVVSAEGSNSGSGSSSSEAYKVPKLKIASLVADIFANTAVAENKVVEVSTDPSAPSRPVDELFSVIPEDGRRKVYADAIARERAEEEAKVAADKAREAAEAAKEFEKQMQKLSEKEAEAASLAEDAQQKADAVGVTVDGLFNKAKDISSGLSWNKLGSQFATAIQNASETPKVQVATVRGQAKARNLPPKKAVVKQRPSSPFASKPKEERPKKPEKEVRKVFGGLFKQETIYIDDD

binding: binds
B4: PTAC5 (protein, UniProt A1A6M1 41-387)
chain: CFSTQNPDREEVRWLREEQRWIREEQRWIREEQRWIRERESLLQEISDLQLRIQSLESRNSQLGNSIPDTISNIAALLQVLKEKNRISESGLSATPMVLESTREQIVEEVEEEEKRVIIAEEKVRVSEPVKKIKRRILKVGSEGDDVQALQEALLKLGFYSGEEDMEFSSFSSGTASAVKTWQASLGVREDGVMTAELLQRLFMDEDVETDKDEASTMKKEEAGNGAVFTSVTQVPEKKQSIVKDQSDREVDVTQNRVFLLGENRWEDPSRLIGRNKPVDRSESTNTKTRCITCRGEGRLMCLECDGTGEPNIEPQFMEWVGEDTKCPYCEGLGYTVCDVCDGKKNL

binding: binds
B5: HAKAI (protein, UniProt Q9LFC0 1-360)
chain: MLQIRLRRDSPTETGNGARPSPTETVTVACPDHLVLADLPVAKGIGSVTPTTVIKPVGRRSRRQLGERVHFCVRCDFPIAIYGRLIPCDHAFCLECARSDSICYLCDERIQKIQTIKMMEGIFICAAPHCLRSFLKKLDFEAHVHDLHGSLLQADAEKEDGNQSDVQSTMQQSSASESTLRAPLRSQLQQSRELNRSASFAKSQSGFSQVQNYPPDSDNSRPPGFETASPKPGIRFPDYPQPMNLMQPPSLPVPMNQNPGLPQQFGFPSYPTTESGSSQQFFNGAQYEMTRTESGGSEQSSLLGYPPPSPMTNLNFQGSYPPPSWNPGMAPPHTTQQVNRGRDGQSFGWPQENRDGFGQE

binding: binds
B7: RNA Recognition Motif (RRM)-containing protein UBA2C (protein, UniProt Q9LKA4 1-404)
chain: MDMMKKRKLDENGNGLNTNGGGTIGPTRLSPQDARKIIERFTTDQLLDLLQEAIVRHPDVLESVRLTADSDISQRKLFIRGLAADTTTEGLRSLFSSYGDLEEAIVILDKVTGKSKGYGFVTFMHVDGALLALKEPSKKIDGRVTVTQLAASGNQGTGSQIADISMRKIYVANVPFDMPADRLLNHFMAYGDVEEGPLGFDKVTGKSRGFALFVYKTAEGAQAALADPVKVIDGKHLNCKLAVDGKKGGKPGMPQAQDGGSGHGHVHGEGMGMVRPAGPYGAAGGISAYGGYSGGPPAHHMNSTHSSMGVGSAGYGGHYGGYGGPGGTGVYGGLGGGYGGPGTGSGQYRMPPSSMPGGGGYPESGHYGLSSSAGYPGQHHQAVGTSPVPRVPHGGMYPNGPPNY

More lines, now with the values behind:

B1: DEAD box RNA helicase 6 (RH6) (protein, UniProt Q94BV4 1-528)
chain: MNNNNNNRGRFPPGIGAAGPGPDPNFQSRNPNPPQPQQYLQSRTPFPQQPQPQPPQYLQSQSDAQQYVQRGYPQQIQQQQQLQQQQQQQQQQQEQQWSRRAQLPGDPSYIDEVEKTVQSEAISDSNNEDWKATLKLPPRDNRYQTEDVTATKGNEFEDYFLKRDLLRGIYEKGFEKPSPIQEESIPIALTGSDILARAKNGTGKTGAFCIPTLEKIDPENNVIQAVILVPTRELALQTSQVCKELSKYLKIEVMVTTGGTSLRDDIMRLYQPVHLLVGTPGRILDLAKKGVCVLKDCAMLVMDEADKLLSVEFQPSIEELIQFLPESRQILMFSATFPVTVKSFKDRYLKKPYIINLMDQLTLMGVTQYYAFVEERQKVHCLNTLFSKLQINQSIIFCNSVNRVELLAKKITELGYSCFYIHAKMVQDHRNRVFHDFRNGACRNLVCTDLFTRGIDIQAVNVVINFDFPRTSESYLHRVGRSGRFGHLGLAVNLVTYEDRFKMYQTEQELGTEIKPIPSLIDKAIYCQ
binding: binds

B3: DEAD box RNA helicase 3 (RH3) (protein, UniProt Q8L7S8 61-748)
chain: AVATPNSVLSEEAFKSLGLSDHDEYDLDGDNNNVEADDGEELAISKLSLPQRLEESLEKRGITHLFPIQRAVLVPALQGRDIIARAKTGTGKTLAFGIPIIKRLTEEAGDYTAFRRSGRLPKFLVLAPTRELAKQVEKEIKESAPYLSTVCVYGGVSYTIQQSALTRGVDVVVGTPGRIIDLIEGRSLKLGEVEYLVLDEADQMLAVGFEEAVESILENLPTKRQSMLFSATMPTWVKKLARKYLDNPLNIDLVGDQDEKLAEGIKLYAIATTSTSKRTILSDLITVYAKGGKTIVFTQTKRDADEVSLALSNSIATEALHGDISQHQRERTLNAFRQGKFTVLVATDVASRGLDIPNVDLVIHYELPNDPETFVHRSGRTGRAGKEGSAILMHTSSQKRTVRSLERDVGCHFEFISPPTVGDLLESSADQVVATLNGVHPDSIKFFSATAQKLYEEKGTDALAAALAHLSGFSQPPSSRSLLSHEKGWVTLQLIRDPTNARGFLSARSVTGFLSDLYRTAADEVGKIFLIADDRIQGAVFDLPEEIAKELLEKDVPEGNSLSMITKLPPLQDDGPSSDNYGRFSSRDRMPRGGGGSRGSRGGRGGSSRGRDSWGGDDDRGSRRSSGGGSSWSRGGSSSRGSSDDWLIGGRSSSSSRAPSRERSFGGSCFICGKSGHRATDCPDKRGF
binding: binds

B6: Arabidopsis Eukaryotic translation initiation factor 3 (eIF3e) (protein, UniProt Q9C5Z3 1-441)
chain: MEESKQNYDLTPLIAPNLDRHLVFPIFEFLQERQLYPDEQILKSKIQLLNQTNMVDYAMDIHKSLYHTEDAPQEMVERRTEVVARLKSLEEAAAPLVSFLLNPNAVQELRADKQYNLQMLKERYQIGPDQIEALYQYAKFQFECGNYSGAADYLYQYRTLCSNLERSLSALWGKLASEILMQNWDIALEELNRLKEIIDSKSFSSPLNQVQNRIWLMHWGLYIFFNHDNGRTQIIDLFNQDKYLNAIQTSAPHLLRYLATAFIVNKRRRPQLKEFIKVIQQEHYSYKDPIIEFLACVFVNYDFDGAQKKMKECEEVIVNDPFLGKRVEDGNFSTVPLRDEFLENARLFVFETYCKIHQRIDMGVLAEKLNLNYEEAERWIVNLIRTSKLDAKIDSESGTVIMEPTQPNVHEQLINHTKGLSGRTYKLVNQLLEHTQAQATR
binding: binds
